According to the supplement of paper PMC10849652:
The other results are listed elsewhere or left out.

The chains behind the UniProt entries cited, without tags or fusion partners. Where a name states a change or a piece, a line headed by the entry shows the natural chain unless it says otherwise.
UniProt Q15637: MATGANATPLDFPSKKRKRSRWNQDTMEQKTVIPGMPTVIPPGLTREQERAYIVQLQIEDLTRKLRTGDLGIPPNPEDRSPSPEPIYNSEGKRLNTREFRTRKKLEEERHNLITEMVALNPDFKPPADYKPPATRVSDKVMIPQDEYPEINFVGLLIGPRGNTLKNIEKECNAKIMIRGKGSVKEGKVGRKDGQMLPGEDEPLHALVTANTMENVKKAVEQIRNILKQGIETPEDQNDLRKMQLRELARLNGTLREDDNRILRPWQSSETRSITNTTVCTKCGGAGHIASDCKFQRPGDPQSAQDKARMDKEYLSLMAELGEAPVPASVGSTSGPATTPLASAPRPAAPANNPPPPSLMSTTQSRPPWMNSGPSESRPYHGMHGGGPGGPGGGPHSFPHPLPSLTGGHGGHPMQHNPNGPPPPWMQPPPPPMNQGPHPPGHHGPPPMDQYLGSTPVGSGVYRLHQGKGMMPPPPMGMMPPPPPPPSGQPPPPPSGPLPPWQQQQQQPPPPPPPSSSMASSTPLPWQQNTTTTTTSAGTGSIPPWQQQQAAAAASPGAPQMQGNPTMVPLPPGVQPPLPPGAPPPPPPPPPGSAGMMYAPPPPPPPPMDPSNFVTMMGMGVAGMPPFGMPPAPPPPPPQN
UniProt Q9BQE4, whole entry, looked up: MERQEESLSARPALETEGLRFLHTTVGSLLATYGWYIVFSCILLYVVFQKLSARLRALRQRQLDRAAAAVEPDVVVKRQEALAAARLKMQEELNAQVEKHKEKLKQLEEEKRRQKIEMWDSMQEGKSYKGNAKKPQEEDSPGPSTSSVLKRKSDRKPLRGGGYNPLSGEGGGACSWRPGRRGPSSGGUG
UniProt P50453: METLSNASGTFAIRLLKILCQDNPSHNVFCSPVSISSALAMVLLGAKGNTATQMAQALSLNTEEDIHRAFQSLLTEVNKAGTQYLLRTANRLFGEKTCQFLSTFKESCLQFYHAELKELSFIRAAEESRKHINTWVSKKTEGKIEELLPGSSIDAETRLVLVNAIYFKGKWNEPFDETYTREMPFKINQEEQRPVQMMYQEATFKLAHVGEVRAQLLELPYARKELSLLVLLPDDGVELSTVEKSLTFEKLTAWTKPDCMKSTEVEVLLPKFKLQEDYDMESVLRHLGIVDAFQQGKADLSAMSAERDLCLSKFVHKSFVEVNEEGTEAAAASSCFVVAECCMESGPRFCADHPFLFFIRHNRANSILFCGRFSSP
UniProt Q9NP31, whole entry, looked up: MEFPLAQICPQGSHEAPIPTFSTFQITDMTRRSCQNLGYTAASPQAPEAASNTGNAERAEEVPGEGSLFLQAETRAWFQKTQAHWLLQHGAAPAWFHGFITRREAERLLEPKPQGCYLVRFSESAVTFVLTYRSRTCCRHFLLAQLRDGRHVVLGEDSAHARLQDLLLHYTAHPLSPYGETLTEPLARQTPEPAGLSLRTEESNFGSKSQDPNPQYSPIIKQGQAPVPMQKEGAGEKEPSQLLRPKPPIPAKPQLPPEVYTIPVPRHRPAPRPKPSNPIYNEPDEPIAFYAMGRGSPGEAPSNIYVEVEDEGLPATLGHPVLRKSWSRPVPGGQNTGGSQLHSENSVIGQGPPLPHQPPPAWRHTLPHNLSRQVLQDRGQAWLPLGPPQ
UniProt P50452: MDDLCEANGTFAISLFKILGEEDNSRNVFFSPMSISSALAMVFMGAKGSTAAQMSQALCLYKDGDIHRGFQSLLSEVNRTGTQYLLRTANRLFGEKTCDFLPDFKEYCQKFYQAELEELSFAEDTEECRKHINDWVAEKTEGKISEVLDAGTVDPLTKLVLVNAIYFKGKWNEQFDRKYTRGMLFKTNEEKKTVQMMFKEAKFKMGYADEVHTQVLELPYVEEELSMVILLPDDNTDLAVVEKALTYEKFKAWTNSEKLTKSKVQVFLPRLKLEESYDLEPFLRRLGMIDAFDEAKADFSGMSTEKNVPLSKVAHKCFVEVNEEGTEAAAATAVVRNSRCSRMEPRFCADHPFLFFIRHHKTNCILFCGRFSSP
UniProt Q7L8J4: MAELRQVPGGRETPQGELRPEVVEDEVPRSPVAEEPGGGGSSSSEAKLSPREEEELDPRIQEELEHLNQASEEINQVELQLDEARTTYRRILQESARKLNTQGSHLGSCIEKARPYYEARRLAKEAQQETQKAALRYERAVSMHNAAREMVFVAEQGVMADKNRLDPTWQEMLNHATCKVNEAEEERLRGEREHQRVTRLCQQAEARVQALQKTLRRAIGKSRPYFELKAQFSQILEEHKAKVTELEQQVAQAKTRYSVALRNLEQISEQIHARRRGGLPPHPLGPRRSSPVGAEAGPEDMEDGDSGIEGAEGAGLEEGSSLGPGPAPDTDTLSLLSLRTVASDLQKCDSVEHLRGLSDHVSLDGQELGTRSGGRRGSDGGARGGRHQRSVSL
UniProt Q9NPR2: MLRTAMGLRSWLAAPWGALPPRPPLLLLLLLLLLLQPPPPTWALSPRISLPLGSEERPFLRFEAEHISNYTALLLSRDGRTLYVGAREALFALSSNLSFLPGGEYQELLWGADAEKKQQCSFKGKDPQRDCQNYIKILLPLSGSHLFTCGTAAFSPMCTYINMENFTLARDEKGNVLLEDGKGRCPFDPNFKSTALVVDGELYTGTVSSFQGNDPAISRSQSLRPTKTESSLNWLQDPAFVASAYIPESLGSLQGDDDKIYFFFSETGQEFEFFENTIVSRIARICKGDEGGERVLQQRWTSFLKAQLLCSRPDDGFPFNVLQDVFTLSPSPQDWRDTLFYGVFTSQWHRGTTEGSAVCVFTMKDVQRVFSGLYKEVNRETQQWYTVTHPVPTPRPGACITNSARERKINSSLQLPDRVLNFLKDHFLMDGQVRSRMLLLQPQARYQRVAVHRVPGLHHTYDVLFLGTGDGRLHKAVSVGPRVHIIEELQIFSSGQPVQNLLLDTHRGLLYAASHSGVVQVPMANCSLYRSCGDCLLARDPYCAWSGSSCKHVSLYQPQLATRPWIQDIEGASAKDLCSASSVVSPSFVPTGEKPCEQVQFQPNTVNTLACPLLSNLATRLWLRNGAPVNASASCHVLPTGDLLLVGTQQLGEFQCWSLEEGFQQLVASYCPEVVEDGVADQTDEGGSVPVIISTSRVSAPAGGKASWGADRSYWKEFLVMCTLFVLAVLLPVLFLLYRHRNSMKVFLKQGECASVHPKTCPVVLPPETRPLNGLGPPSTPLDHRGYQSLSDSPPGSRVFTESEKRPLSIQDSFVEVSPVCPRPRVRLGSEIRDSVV
UniProt P01008, whole entry, looked up: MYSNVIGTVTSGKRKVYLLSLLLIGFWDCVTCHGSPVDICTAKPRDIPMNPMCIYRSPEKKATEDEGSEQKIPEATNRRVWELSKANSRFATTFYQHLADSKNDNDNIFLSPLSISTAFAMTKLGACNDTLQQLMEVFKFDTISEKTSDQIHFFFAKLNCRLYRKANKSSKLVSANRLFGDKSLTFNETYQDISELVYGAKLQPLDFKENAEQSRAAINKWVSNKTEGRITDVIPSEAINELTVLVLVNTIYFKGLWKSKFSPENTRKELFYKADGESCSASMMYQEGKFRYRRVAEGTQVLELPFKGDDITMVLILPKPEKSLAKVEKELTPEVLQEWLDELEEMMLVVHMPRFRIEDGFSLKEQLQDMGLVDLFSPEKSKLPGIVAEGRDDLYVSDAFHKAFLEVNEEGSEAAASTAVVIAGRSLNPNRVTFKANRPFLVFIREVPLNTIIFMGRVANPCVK
UniProt Q9UGK8: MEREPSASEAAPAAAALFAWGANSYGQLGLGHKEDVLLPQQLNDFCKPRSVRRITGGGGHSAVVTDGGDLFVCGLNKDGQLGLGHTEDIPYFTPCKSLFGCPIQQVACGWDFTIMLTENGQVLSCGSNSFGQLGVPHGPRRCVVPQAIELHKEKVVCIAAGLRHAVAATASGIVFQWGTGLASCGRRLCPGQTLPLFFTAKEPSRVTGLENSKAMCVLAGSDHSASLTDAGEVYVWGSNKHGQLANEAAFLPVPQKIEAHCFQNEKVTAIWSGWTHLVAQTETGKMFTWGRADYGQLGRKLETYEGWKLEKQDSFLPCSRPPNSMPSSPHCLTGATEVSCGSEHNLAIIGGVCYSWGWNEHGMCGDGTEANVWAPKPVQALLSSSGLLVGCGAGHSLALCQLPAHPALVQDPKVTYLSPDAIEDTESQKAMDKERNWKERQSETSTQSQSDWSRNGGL
UniProt Q15393: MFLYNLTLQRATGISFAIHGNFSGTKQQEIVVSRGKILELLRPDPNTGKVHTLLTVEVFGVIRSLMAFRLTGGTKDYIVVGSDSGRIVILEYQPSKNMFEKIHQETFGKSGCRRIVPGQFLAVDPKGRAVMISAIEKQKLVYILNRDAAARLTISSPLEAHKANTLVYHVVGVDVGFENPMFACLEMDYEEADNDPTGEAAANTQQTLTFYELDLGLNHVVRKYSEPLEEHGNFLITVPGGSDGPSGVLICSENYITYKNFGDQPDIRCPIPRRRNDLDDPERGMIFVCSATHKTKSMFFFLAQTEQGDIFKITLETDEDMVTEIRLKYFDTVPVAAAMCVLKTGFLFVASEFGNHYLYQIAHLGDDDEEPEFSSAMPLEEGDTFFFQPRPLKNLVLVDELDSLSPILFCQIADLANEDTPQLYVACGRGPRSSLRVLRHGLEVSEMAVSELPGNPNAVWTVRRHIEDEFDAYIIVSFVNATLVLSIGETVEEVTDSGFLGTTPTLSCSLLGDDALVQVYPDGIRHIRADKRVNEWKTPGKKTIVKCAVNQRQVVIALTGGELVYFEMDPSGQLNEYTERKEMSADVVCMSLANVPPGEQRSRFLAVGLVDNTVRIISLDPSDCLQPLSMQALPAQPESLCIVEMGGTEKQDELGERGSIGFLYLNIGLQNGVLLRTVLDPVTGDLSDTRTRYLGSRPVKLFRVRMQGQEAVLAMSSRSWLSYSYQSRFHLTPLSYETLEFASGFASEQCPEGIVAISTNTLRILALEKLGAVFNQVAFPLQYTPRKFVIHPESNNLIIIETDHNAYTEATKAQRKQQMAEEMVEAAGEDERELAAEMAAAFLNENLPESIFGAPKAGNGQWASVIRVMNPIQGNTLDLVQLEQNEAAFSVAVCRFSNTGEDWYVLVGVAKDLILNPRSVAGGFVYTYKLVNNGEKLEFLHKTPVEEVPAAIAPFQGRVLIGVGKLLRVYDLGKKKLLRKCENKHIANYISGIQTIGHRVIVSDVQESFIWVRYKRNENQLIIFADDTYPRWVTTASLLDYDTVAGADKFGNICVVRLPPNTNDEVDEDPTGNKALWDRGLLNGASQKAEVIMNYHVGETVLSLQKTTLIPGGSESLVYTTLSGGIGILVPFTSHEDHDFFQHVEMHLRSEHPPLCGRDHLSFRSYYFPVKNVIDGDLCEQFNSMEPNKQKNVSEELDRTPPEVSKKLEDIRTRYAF
UniProt Q9UQ13: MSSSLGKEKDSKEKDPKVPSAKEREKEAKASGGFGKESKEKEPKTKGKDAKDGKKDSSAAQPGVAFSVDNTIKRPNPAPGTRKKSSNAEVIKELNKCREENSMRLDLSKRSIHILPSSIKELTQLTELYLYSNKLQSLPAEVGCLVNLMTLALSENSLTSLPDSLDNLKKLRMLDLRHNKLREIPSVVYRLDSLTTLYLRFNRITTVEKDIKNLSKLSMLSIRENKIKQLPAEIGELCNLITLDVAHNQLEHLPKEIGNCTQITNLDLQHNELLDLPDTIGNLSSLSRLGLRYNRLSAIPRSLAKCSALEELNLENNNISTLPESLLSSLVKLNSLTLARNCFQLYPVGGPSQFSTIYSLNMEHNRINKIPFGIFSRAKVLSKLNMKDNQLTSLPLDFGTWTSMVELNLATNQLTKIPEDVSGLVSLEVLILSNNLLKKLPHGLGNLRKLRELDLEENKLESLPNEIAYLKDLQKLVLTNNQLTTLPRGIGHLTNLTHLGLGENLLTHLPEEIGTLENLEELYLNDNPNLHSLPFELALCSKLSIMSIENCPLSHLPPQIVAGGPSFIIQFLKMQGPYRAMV
UniProt O75368: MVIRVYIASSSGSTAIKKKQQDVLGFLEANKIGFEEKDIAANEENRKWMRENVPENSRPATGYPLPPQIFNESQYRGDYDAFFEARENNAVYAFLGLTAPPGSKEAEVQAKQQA
UniProt Q8IUQ4: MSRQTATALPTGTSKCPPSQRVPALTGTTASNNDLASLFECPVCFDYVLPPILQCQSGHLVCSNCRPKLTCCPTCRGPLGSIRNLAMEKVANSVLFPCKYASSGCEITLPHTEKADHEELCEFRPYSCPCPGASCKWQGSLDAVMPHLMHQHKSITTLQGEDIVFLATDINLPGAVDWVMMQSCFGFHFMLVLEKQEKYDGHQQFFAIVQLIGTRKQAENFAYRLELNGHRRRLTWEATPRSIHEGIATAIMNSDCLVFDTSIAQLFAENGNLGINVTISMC

compound: c1cn2cc(-c3ccc4cn[nH]c4c3)nc(Nc3ccc(N4CCOCC4)cc3)c2n1 [entospletinib]; experiment: log2 fold change, soluble protein after heating vs DMSO (PISA); higher = thermal stabilisation; K562 cells, 10 uM, 30 min; active = over 0.2 and 3.5 SD of the protein, either way, in both replicates (recomputed)
In short: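 K562 cells (2×10^6 cells/mL) were treated with 10 μM compound for 30 min, and aliquots were heated for 3 min over 48°C-58°C. Pooled aliquots were extracted in PBS with 0.5% NP-40 at 4°C, and the supernatant after 21,000xg for 90 min was measured by TMTpro 16plex LC-MS/MS with channel sums equalised. Reported thermal stability, relative to control samples and from duplicates, is a log2 fold change.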

log2 fold change, inactive:
SIRT6 (UniProt Q8N6T7) -0.092
SF1 isoform 6 (UniProt Q15637) 0.101
SELENOS (UniProt Q9BQE4) 0.002
SFPQ (UniProt P23246) 0.106
SERPINB9 (UniProt P50453) 0.007
SH2D2A isoform 2 (UniProt Q9NP31) 0.077
SF1 isoform 5 (UniProt Q15637) 0.034
SERPINB8 (UniProt P50452) -0.029
SH3BP5L (UniProt Q7L8J4) -0.025
SEMA4B (UniProt Q9NPR2) -0.029
SERPINC1 (UniProt P01008) 0.309
SERGEF (UniProt Q9UGK8) 0.034
SETDB1 (UniProt Q15047) 0.025
SIK2 (UniProt Q9H0K1) -0.152
SF3B3 (UniProt Q15393) -0.077
SEPTIN6 (UniProt Q14141) 0.014
SHOC2 (UniProt Q9UQ13) 0.051
SH3BGRL (UniProt O75368) -0.01
SEPTIN2 (UniProt B5MCX3) 0.104
SIX5 (UniProt Q8N196) -0.047
SERPINB5 (UniProt P36952) 0.027
SIAH1 isoform 2 (UniProt Q8IUQ4) -0.182

Copied from above (2 entries):
log2 fold change, inactive:
SF1 isoform 5 (UniProt Q15637) 0.034
SERPINB8 (UniProt P50452) -0.029
